In patent US20150376252A1:
No constants are given. Whether binding was seen depends on the method and setting. Some entries that bind do so weakly or less than the wild type. Where a sequence is shown, tags or fusion partners need not be part of it.

Tests used:
[1] = target: T1, Tspan12-YFP (human Tspan12 with YFP at the C-terminus) (human) (UniProt O95859); experiment: BRET in COS-1 cells (FIG. 6D)
T1 sequence (looked up): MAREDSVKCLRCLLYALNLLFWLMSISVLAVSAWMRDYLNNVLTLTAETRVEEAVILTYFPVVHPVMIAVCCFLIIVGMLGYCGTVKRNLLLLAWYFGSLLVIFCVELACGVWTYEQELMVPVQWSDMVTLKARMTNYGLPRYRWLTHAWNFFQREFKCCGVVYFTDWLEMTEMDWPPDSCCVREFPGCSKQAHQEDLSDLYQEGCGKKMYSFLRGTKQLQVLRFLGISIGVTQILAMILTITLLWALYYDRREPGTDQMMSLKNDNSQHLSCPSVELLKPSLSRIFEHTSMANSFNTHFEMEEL

[2] = target: T1, Tspan12-YFP (human Tspan12 with YFP at the C-terminus) (human); experiment: static BRET in transfected COS-1 cells

B1: Tspan12-Rlu (human Tspan12 with Renilla luciferase at the C-terminus) (protein, UniProt O95859 1-305, looked up, not shown: large carriers)
chain: T1 sequence (looked up)
In the case of B1, the binding [1] is reported as “binds” and the binding [2] is reported as “binds”.
